Experimental data as given in paper PMC13144348.

Experiments:
[1] = target: T1, Pil1-Ste4-mCherry (S. pombe) (UniProt P36622); assay: Pil1 co-recruitment assay (microscopy); mCherry-tagged bait fused to Pil1 to target it to eisosomes; recruitment of the GFP-tagged prey assessed by microscopy in vegetative cells in MSL+N; Pearson correlation coefficient
T1 sequence: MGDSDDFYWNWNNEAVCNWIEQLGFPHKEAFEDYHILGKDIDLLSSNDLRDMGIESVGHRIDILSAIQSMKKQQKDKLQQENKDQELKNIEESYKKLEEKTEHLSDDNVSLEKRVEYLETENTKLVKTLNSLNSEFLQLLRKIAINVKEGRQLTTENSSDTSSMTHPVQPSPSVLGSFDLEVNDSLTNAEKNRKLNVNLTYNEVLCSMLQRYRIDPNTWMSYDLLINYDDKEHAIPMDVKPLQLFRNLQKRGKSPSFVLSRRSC

[2] = target: Sms1 arrestin domain-sfGFP (S. pombe); assay: co-IP; anti-GFP beads; membrane fractions of vegetative cells (ste11Δ for Byr1^DD) expressing both proteins under the nmt41 promoter; membranes resuspended in LBi + 1% LMNG + 0.1% CHS
[3] = target: Sms1-sfGFP (full-length, nmt41 promoter) (S. pombe); assay: as above
[4] = target: Sms1-sfGFP (full-length, nmt41 promoter) (S. pombe); assay: co-IP; anti-GFP beads; lysates (whole cell extracts) of vegetative cells expressing both proteins under the nmt41 promoter; lysis in LBi + 1% LMNG + 0.1% CHS, 3 h at 4 °C, washes with LBi + 1% NP-40
[5] = target: Pil1-Ste4^ΔRA-mCherry (S. pombe); assay: Pil1 co-recruitment assay (microscopy); mCherry-tagged bait fused to Pil1 to target it to eisosomes; recruitment of the GFP-tagged prey assessed by microscopy in vegetative cells in MSL+N; Pearson correlation coefficient

Molecule: Sms1-sfGFP (full-length, nmt41 promoter) (S. pombe)
- binding [1]: binds

Molecule: Sms1^ΔSBD-sfGFP (S. pombe)
- binding [1]: no binding

B1: Gpa1-3xFLAG-mCherry (protein, UniProt P27584 1-407)
chain: MGCMSSKYADTSGGEVIQKKLSDTQTSNSSTTGSQNARVPVLENWLNIVLRGKPQNVESSGVRVKGNSTSGGNDIKVLLLGAGDSGKTTIMKQMRLLYSPGFSQVVRKQYRVMIFENIISSLCLLLEAMDNSNVSLLPENEKYRAVILRKHTSQPNEPFSPEIYEAVHALTLDTKLRTVQSCGTNLSLLDNFYYYQDHIDRIFDPQYIPSDQDILHCRIKTTGISEETFLLNRHHYRFFDVGGQRSERRKWIHCFENVTALLFLVSLAGYDQCLVEDNSGNQMQEALLLWDSICNSSWFSESAMILFLNKLDLFKRKVHISPIQKHFPDYQEVGSTPTFVQTQCPLADNAVRSGMYYFYLKFESLNRIASRSCYCHFTTATDTSLLQRVMVSVQDTIMSNNLQSLMF
- binding [2]: binds
- binding [3]: binds

B2: Gpa1^Q244L-3xFLAG-mCherry (protein, UniProt P27584 1-407)
chain: B1 chain with Q244L
- binding [3]: binds

B3: Gpa1^G242A-3xFLAG-mCherry (protein, UniProt P27584 1-407)
chain: B1 chain with G242A
- binding [3]: binds

B4: Ste4-3xFLAG-mCherry (protein, UniProt P36622 1-264)
chain: T1 sequence
- binding [4]: binds

B5: MAP3K^Byr2, GFP-tagged (co-recruitment prey) (protein, UniProt P28829 1-659)
chain: MEYYTSKEVAEWLKSIGLEKYIEQFSQNNIEGRHLNHLTLPLLKDLGIENTAKGKQFLKQRDYLREFPRPCILRFIACNGQTRAVQSRGDYQKTLAIALKKFSLEDASKFIVCVSQSSRIKLITEEEFKQICFNSSSPERDRLIIVPKEKPCPSFEDLRRSWEIELAQPAALSSQSSLSPKLSSVLPTSTQKRSVRSNNAKPFESYQRPPSELINSRISDFFPDHQPKLLEKTISNSLRRNLSIRTSQGHNLGNFGQEILPRSSRRARPSELVCPLSSLRISVAEDVNRLPRIDRGFDPPLTVSSTQRISRPPSLQKSITMVGVEPLYQSNGNEKSSKYNVFSESAHGNHQVLSFSPGSSPSFIEQPSPISPTSTTSEDTNTLEEDTDDQSIKWIRGALIGSGSFGQVYLGMNASSGELMAVKQVILDSVSESKDRHAKLLDALAGEIALLQELSHEHIVQYLGSNLNSDHLNIFLEYVPGGSVAGLLTMYGSFEETLVKNFIKQTLKGLEYLHSRGIVHRDIKGANILVDNKGKIKISDFGISKKLELNSTSTKTGGARPSFQGSSFWMAPEVVKQTMHTEKTDIWSLGCLVIEMLTSKHPYPNCDQMQAIFRIGENILPEFPSNISSSAIDFLEKTFAIDCNLRPTASELLSHPFVS
- binding [5]: binds

Positions count from the first letter of the chain named. In names and notes the source's numbering stands. These are yes or no findings as the source states them, for the method shown. Binding can be weak; no strength is given. For some assays here: Sequences can lack the tags named with a protein. For some assays here: Binding seen in cells or lysates may run through a third protein.
